The record followed here is patent publication KR20230175116A.

These are yes or no findings as the source states them, for the method shown. Some entries that bind do so weakly or less than the wild type. Sequences can lack the tags named with a protein.

The target in this experiment is T1, DR3-His tag (human) (UniProt Q93038).
T1 sequence (looked up): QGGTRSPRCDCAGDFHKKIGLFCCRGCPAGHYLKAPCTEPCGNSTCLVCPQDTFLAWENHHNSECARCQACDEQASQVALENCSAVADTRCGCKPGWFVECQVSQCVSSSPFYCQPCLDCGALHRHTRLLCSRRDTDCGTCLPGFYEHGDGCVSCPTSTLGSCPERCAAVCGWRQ
Put plainly: SPR, Biacore T100, DR3-His tag immobilised on CM5 chip; TL1A as the reference.

B1: TL1A (ligand, UniProt O95150 72-251, looked up)
chain: LKGQEFAPSHQQVYAPLRADGDKPRAHLTVVRQTPTQHFKNQFPALHWEHELGLAFTKNRMNYTNKFLLIPESGDYFIYSQVTFRGMTSECSEIRQAGRPNKPDSITVVITKVTDSYPEPTQLLMGTKSVCEVGSNWFQPIYLGAMFSLQEGDKLMVNVSDISLVDYTKEDKTFFGAFLL
Regarding B1, the binding entry is “binds”.
